# Laboratory results: article PMC11915804, “In situ structures of the contractile nanomachine myophage Mu in both its extended and contracted states” (Journal of Virology, 2025)
# Results are given in words; binding and its absence hold for the method and conditions named.
# T1: tail tube protein gp40 (phage Mu) (UniProt P79679)
# T1 sequence: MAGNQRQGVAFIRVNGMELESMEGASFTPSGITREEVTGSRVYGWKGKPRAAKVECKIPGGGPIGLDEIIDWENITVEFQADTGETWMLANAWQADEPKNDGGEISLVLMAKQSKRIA
# B1: tail sheath protein gp39 (natural protein, phage Mu, UniProt P79678 1-495, looked up)
# chain: MSDISFNAIPSDVRVPLTYIEFDNSNAVSGTPAPRQRVLMFGQSGSKASAAPNVPVRIRSGSQASAAFGQGSMLALMADAFLNANRVAELWCIPQGNGTGNAAVGEISLSGTAGENGSLVTYIAGQRLAVSVAAGATGAALADLLVARIKGQPDLPVTAEVRADSGDDDTHADVVLSAKFTGALSAVDVRWNYYAGETTPYGIITAFKAASGKNGNPDISASIAGMGDLQYKYIVMPYTDEPNLNLLRTELQERWGPVNQADGFAVTVLSGTYGDISTFGVSRNDHLISCMGIAGAPEPSYLYAATLCAVASQALSIDPARPLQTLTLPGRMPPAVGDRFTWSERNALLFDGISTFNVNDGGEMQIERMITMYRTNKYGDSDPSYLNVNTIATLSYLRYSLRTRITQKFPNYKLASDGTRFATGQAVVTPSVIKTELLALFEEWENAGLVEDFDTFKEELYVARNKDDKDRLDVLCGPNLINQFRIFAAQVQFIL
# notes: tail sheath protein gp39 of myophage Mu, as it stands in the virion; Hexameric rings, 30 of them stacked in the tail; Model deposited here; source: phage Mu virions grown on E. coli (ATCC 23724), purified (PEG 8000/NaCl precipitation, CsCl gradient)
# Target: T1, tail tube protein gp40 (phage Mu)
# Assay: condition: only contracted state (virions treated with 5 M urea); cryo-EM structure; purified phage Mu virions in the contracted state: diluted 10-fold with 5 M urea, 2 h at 37°C, urea removed by ultrafiltration; baseplate, DNA and TMP lost; 3.6 Å (portal-adaptor), 3.8 Å (terminator-tail); both purified
binder,measurement,value
B1,binding,no binding
